From ChEMBL document CHEMBL3988442, “University of Dundee, Small-Polar-MMV Screening Library” (2021).

Mtb glucose medium: 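Whole-cell growth test on Mycobacterium tuberculosis, read after 3 days in glucose-containing 7H9 medium; the read-out is not stated. Tested at 50 µM. Higher reads as more growth inhibition (inferred: compounds with an IC50 in retests scored well above the rest). Of about 69,000 compounds tested this way, about 760 (1.1%) reached 50% or more in at least one test.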
Mtb cholesterol medium: 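Growth of Mycobacterium tuberculosis over 4 days (cholesterol / DPPC medium with tyloxapol); the read-out is not stated. Tested at 50 µM. Direction is inferred from retests: higher values go with more growth inhibition. Of about 69,000 compounds tested this way, about 370 (0.54%) reached 50% or more in at least one test.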

Each number is a percent effect as filed.
The record does not define 0% and 100%; most values in the screen are far below 50% and negative numbers occur (in some assays of this library far below -100).
Compounds were drawn at random from those tested, without regard to their results.
Two or more numbers in one place are separate tests of the same structure; such repeats can differ widely.

Compound	Mtb glucose medium	Mtb cholesterol medium
CN(C(=O)Cc1c[nH]c2ccccc12)C1CCN(c2ccccn2)CC1	-17.21%	-12.19%
Cc1cc(C)n(CC2CN(CC(=O)Nc3ccncc3)CCO2)n1 (stereo not drawn)	12.3%	-0.9699%
CCCN(C(=O)CN1CCN(CCO)CC1)C1=CCCCC1	19.57%	4.631%
c1cnn(CC2CCCN2Cc2nc(-c3ccoc3)no2)c1 (stereo not drawn)	-3.742%	-10.51%
O=C(c1cnn(-c2ccccc2F)c1)N1CCN(CCO)CC1	-8.065%	13.82%
[H][C@]12CC[C@]([H])(CN(C(=O)c3ccccc3)C1)N(S(=O)(=O)c1cccnc1)C2	-6.088%	-0.5542%
Cc1nc(C2CCCN(C(=O)CCCn3cccn3)C2)sc1C (stereo not drawn)	-32.28%	-13.58%
O=C(c1n[nH]c2c1CCN(Cc1nccs1)C2)N1CCOCC1	0.4189% and -23.28%	-5.987% and -8.568%
Cc1nc(NC(=O)C(C)N2CCN(c3ccccc3F)CC2)sc1C (stereo not drawn)	14.95% and 32.59%	40.32%
Cc1cccc(CN2CCc3c(nc(N4CCC(C)CC4)[nH]c3=O)C2)n1	31.82%	-5.006%
Br.COc1ccc(OCCc2cc(C3CCN(CC(C)C)C3)n[nH]2)cc1 (stereo not drawn)	-8.584%	10.48% and 23.16%
Cc1nn(CC(=O)N2CCC(Nc3cccnn3)CC2)c(C)c1Cl	-12.17%	7.084%
Cc1sc2ncnc(N3CCCC3Cn3cccn3)c2c1C (stereo not drawn)	-2.456%	-17.77%
CCN(CC)C(=O)[C@@H]1C[C@@H](n2cc(-c3cccc(OC)c3)nn2)CN1	-12.86%	12.19%
Cc1cc(CNC(=O)c2cc(COc3cncc(Cl)c3)on2)n[nH]1	11.04%	-26.07% and -6.313%
CC1CCN(CCNC(=O)c2ccccc2N2CCOCC2)CC1	-36.63%	-36.75%
Cc1cc(C2CCCN(C(=O)COc3ccc(F)cc3)C2)n[nH]1 (stereo not drawn)	2.002% and 16.87%	8.42%
O=C(c1ccc(F)cc1F)N1CCN(C(=O)C2CCCCC2)CC1	10.35%	-8.021%
Cc1nc2ccnn2c(C)c1CCC(=O)N1CCSCC1	-1.865%	-3.708%
CCNC(=O)CCC(=O)Nc1nc(C)c(Cc2ccc(F)cc2)s1	10.21%	7.141%
[H][C@]12CC[C@]([H])(CN(Cc3nnc(-c4ccccc4)o3)C1)N(CC1CCC1)C2	-43.34%	5.803%
CCNc1ccnc(N2Cc3cnc(CC(C)C)nc3C2)n1	23.02%	-17.37%
Cc1cnc(N2CCC(OCCN3CCCCC3)C2)nc1C (stereo not drawn)	42.92%	18.2%
CO[C@@H]1CCN(S(=O)(=O)c2cccs2)[C@H]1Cc1cccnc1.O=C(O)C(F)(F)F	-9.433%	-4.243%
CN(C)CCCNC(=O)c1nnsc1-c1ccccc1	14.94%	1.874%
CC(=O)Nc1nc(C(=O)N2CCCC(n3cncn3)C2)cs1 (stereo not drawn)	15.7%	1.643%
CCC(C)N(Cc1ccncc1)Cc1ccccc1Cn1cccn1 (stereo not drawn)	10.49%	7.913%
Cc1ccc(N2CCOC(C)(C(=O)N(C)C)C2)nn1 (stereo not drawn)	7.572%	11.69%
COc1c(CNCc2ccc(C(=O)N3CCCC3)cc2)c(C)nn1C.Cl	-20.3%	-0.2351%
Fc1ccc(OCCCN2CCOC(Cn3cncn3)C2)cc1 (stereo not drawn)	-34.6%	6.473%
[H][C@@]12CS(=O)(=O)C[C@]1([H])N(C(=O)Nc1ccccc1Cl)CCN2CC1CC1	17.24%	-29.15%
CN(C)C(=O)CN1CCOCC2(CCN(c3ncc(F)cn3)CC2)C1.O=C(O)C(F)(F)F	-13.69%	1.144%
CCN(CCCc1ccccc1C)S(C)(=O)=O	-23.4%	-36.97%
c1cnn(CC2CCCCN2Cc2nc(-c3ccoc3)no2)c1 (stereo not drawn)	-7.95%	-8.283%
N#Cc1nccnc1NCCC1CCN(CC(F)(F)F)CC1	12.7% and 15.41%	4.133%
N#Cc1cc(S(N)(=O)=O)ccc1NC1CCc2cc(Cl)ccc21 (stereo not drawn)	14.46%	12.25%
CC(NC(=O)COc1ccccc1Cl)c1nnc2n1CCC2 (stereo not drawn)	-12.16%	-24.52%
CCN(c1ccc(C(=O)NCCCN2CCCCC2)cc1)S(=O)(=O)CC	-10.57%	-25.41%
Cc1cc(F)ccc1S(=O)(=O)NCc1cccc(C(=O)N2CCCC2)c1	4.631%	10.21%
Cc1cccc(NC(=O)N2CCN(Cc3nnc(C(C)C)o3)CC2)c1	-9.903%	4.507%
CC(C)c1cc(C(=O)N2CCN(c3cccc(C(=O)O)c3)CC2)n(C)n1	-32.92%	-31.58%
O=C(Nc1nc2c(s1)CN(S(=O)(=O)C1CC1)CC2)c1c(F)cccc1F	1.216% and -21.61%	-28.84%
FC1(F)CCN(Cc2cccnc2)CC12CCN(c1ccccn1)C2.O=C(O)C(F)(F)F.O=C(O)C(F)(F)F.O=C(O)C(F)(F)F (stereo not drawn)	45.81%	-10.45%
CCCN(CC1COc2ccccc2O1)C(=O)c1ncoc1CC (stereo not drawn)	16.23% and 8.236%	1.959%
O=C(NCc1ccc2c(c1)OCO2)N1CCCC2(C1)OCCO2	2.404% and -19.46%	0.7539%
O=C(NCCn1ccnc1)c1cccc(Br)c1	-3.93%	-11.57%
COc1cccc(CNCc2c(C)nn(C)c2N(C)C)c1	15.32%	5.315%
CN(C)c1cc(C2CCCN2)ccn1 (stereo not drawn)	-32.12%	-19.26% and -4.681%
Cc1nn(C)c2nc(N(Cc3cnn(C)c3)C3CCCCC3)sc12	4.934%	21.78%
CN(CCOc1cccc(S(C)(=O)=O)c1)CC(F)F	-2.208%	12.17% and -11.68%
CC(C)n1ccnc1C1CCCN(c2cc(C(=O)NC3CC3)ccn2)C1 (stereo not drawn)	-23.27%	-3.045% and 4.892%
CN(c1ncc(C(=O)NCc2ccccc2)c(N)n1)C1CCCCC1	-28.44%	-1.78%
CN1CC2(CCN(C(=O)Cc3ccccn3)CC2)OCC1=O.O=C(O)C(F)(F)F	-5.103% and -35.16%	0.5617%
CC(C)CC(=O)N1CCCC1c1ccsc1 (stereo not drawn)	3.005%	-3.273%
Cc1nccn1-c1cccc(C2CCCN2S(=O)(=O)c2cn(C)cn2)n1 (stereo not drawn)	-33.34%	-13.34%
CCCN1CCC(CC(=O)N(C)CC(=O)c2ccc(O)cc2)CC1	25.13% and -7.667%	16.89%
COc1cccc2c1OCC(C(=O)N1Cc3ccccc3C1)C2 (stereo not drawn)	4.225%	-2.761% and 4.577%
CC(NCc1ccc(C(N)=O)cc1)c1ccc(Cl)c(Cl)c1.Cl (stereo not drawn)	11.59%	3.121%
CN(Cc1cc(C(C)(C)C)n[nH]1)C(=O)c1ccccc1C1CCNC1 (stereo not drawn)	17.1%	19.53% and 2.244%
CCN(CC)c1nc2ccsc2c(=O)n1CCC(=O)NC1CCCC1	1.739% and 3.863%	5.067%
CCOc1c(C(N)=O)cn(C)c1-c1nc2cc(NC(C)=O)ccc2n1C	-7.824%	6.917%
CCc1nc2n(n1)CC(NCc1cnn(Cc3ccccc3)c1)CC2 (stereo not drawn)	-10.43%	-9.268%
CC(C)CN(Cc1ccc(C(F)(F)F)nc1)Cc1cnn(C)c1	31.52% and 35.51%	27.96%
O=C(NCCNC(=O)C1CCCCC1)NCCn1cccc1	7.742%	-11.33%
CCn1c(C2CCN(C(=O)c3ccc4sc(C)nc4c3)CC2)n[nH]c1=O	-7.473% and -25.59%	-10.97%
CC(=O)NCc1nnn2c1CN(c1ncc(C)cn1)CCC2	9.832%	-15.61%
CCC(CO)N(Cc1cccnc1)Cc1ccc(-c2ccn[nH]2)s1 (stereo not drawn)	22.84%	2.789%
CCc1csc(C2CCCN(C(=O)c3cc(C4CC4)[nH]n3)C2)n1 (stereo not drawn)	50.71%	43.65%
CC(=O)N1CCCC(c2ccc(C(N)=O)cn2)C1 (stereo not drawn)	19.75%	-10.07%
COc1cc2ccccc2cc1C(=O)N1CCCC(c2nncn2C)C1 (stereo not drawn)	-9.199%	-21.88%
CC(C)CC(=O)N1CC(=O)c2sc(Nc3ccc(F)cc3)nc2C1	-21.43%	-18.52%
Cc1c(CC(=O)N2CCSCC2)nnn1-c1cccc(Cl)c1	8.24%	-38.05%

8 of the entries, repeated:

| Compound | Mtb glucose medium | Mtb cholesterol medium |
|---|---|---|
| `CC1CCN(CCNC(=O)c2ccccc2N2CCOCC2)CC1` | -36.63% | -36.75% |
| `CCc1nc2n(n1)CC(NCc1cnn(Cc3ccccc3)c1)CC2` (stereo not drawn) | -10.43% | -9.268% |
| `Cc1cc(C)n(CC2CN(CC(=O)Nc3ccncc3)CCO2)n1` (stereo not drawn) | 12.3% | -0.9699% |
| `CC(C)CN(Cc1ccc(C(F)(F)F)nc1)Cc1cnn(C)c1` | 31.52% and 35.51% | 27.96% |
| `Cc1cc(CNC(=O)c2cc(COc3cncc(Cl)c3)on2)n[nH]1` | 11.04% | -26.07% and -6.313% |
| `CC(NCc1ccc(C(N)=O)cc1)c1ccc(Cl)c(Cl)c1.Cl` (stereo not drawn) | 11.59% | 3.121% |
| `CN(C)CCCNC(=O)c1nnsc1-c1ccccc1` | 14.94% | 1.874% |
| `CN(C)C(=O)CN1CCOCC2(CCN(c3ncc(F)cn3)CC2)C1.O=C(O)C(F)(F)F` | -13.69% | 1.144% |